Measured values taken from paper PMC6966542.
Results are given in words; binding and its absence hold for the method and conditions named. In cells and extracts the contact can be indirect. Some entries that bind do so weakly or less than the wild type.

Target: Myc-6His tagged wild type (WT) calreticulin (CALR) (human) (UniProt P27797)
Assay: co-IP; HEK293T cotransfected with Myc-6His tagged WT, del52 or ins5 CALR and FLAG-tagged EDEM3 or HA-tagged EDEM1; lysis in 20 mM Tris-HCl pH 7.5, 150 mM NaCl, 1.5% CHAPS, protease inhibitors; anti-Myc antibody overnight, protein G magnetic beads; western blot for EDEM3 or calnexin

binding: binds
B1: Calnexin (CANX) (protein, UniProt P27824 21-592)
chain: HDGHDDDVIDIEDDLDDVIEEVEDSKPDTTAPPSSPKVTYKAPVPTGEVYFADSFDRGTLSGWILSKAKKDDTDDEIAKYDGKWEVEEMKESKLPGDKGLVLMSRAKHHAISAKLNKPFLFDTKPLIVQYEVNFQNGIECGGAYVKLLSKTPELNLDQFHDKTPYTIMFGPDKCGEDYKLHFIFRHKNPKTGIYEEKHAKRPDADLKTYFTDKKTHLYTLILNPDNSFEILVDQSVVNSGNLLNDMTPPVNPSREIEDPEDRKPEDWDERPKIPDPEAVKPDDWDEDAPAKIPDEEATKPEGWLDDEPEYVPDPDAEKPEDWDEDMDGEWEAPQIANPRCESAPGCGVWQRPVIDNPNYKGKWKPPMIDNPSYQGIWKPRKIPNPDFFEDLEPFRMTPFSAIGLELWSMTSDIFFDNFIICADRRIVDDWANDGWGLKKAADGAAEPGVVGQMIEAAEERPWLWVVYILTVALPVFLVILFCCSGKKQTSGMEYKKTDAPQPDVKEEEEEKEEEKDKGDEEEEGEEKLEEKQKSDAEEDGGTVSQEEEDRKPKAEEDEILNRSPRNRKPRRE
